The values below are quoted from earlier work in PMC6359144 (International Journal of Molecular Sciences, 2019).

Broadly, the IC50 is the concentration that inhibits the measured activity by half.

For data set [1], the system named is KB-V1^Vbl cervix carcinoma cells. Particulars: read-out: IC50 KB-V1^Vbl (72 h), MTT, and 34; cited from earlier work.
In data set [2] the test system is Ea.Hy926 endothelial hybrid cells. Also noted: method as in earlier work. Conditions: read-out: IC50 Ea.Hy926 (72 h), MTT, and 34; cited from earlier work.
For another data set, the system named is 518A2 melanoma cells. Also noted: method as in earlier work. Conditions: MTT, and 34, cited from earlier work.
In data set [3] the test system is HT-29 colon carcinoma cells. More on the design: method as in earlier work. Conditions: MTT, and 34, cited from earlier work.
The subject of data set [4] is HCT-116 colon carcinoma cells. More on the design: method as in earlier work. Conditions: read-out: IC50 HCT-116 (72 h), MTT, and 34; cited from earlier work.
The subject of data set [5] is MCF-7^Topo breast adenocarcinoma cells. Also noted: method as in earlier work. Particulars: read-out: IC50 MCF-7^Topo (72 h), MTT, and 34; cited from earlier work.

Each structure is given as a SMILES string. Where two headings read alike, the source gives them in different places.

Consider `O=C(CCCCCCC(=O)Nc1ccccc1)NO` [SAHA, Suberoyl anilide hydroxamic acid], for which the IC50 in data set [1] was 13100 ± 800 nM; in data set [2] it was 1900 ± 200 nM; in the data set with 518A2 melanoma cells (24 h, read-out: IC50 518A2 (24 h)), 18700 ± 100 nM; with 518A2 melanoma cells (read-out: IC50 518A2 (72 h), 72 h), 1800 ± 100 nM; in data set [3] (24 h, read-out: IC50 HT-29 (24 h)), 1900 ± 300 nM; in data set [3] (read-out: IC50 HT-29 (72 h), 72 h), 1800 ± 100 nM. Besides, the figures for the IC50 in data set [4] and in data set [5] were 900 ± 100 nM and 13500 ± 700 nM, respectively.
